The text below walks through data of publication PMC10217912.

By UniProt entry, the sequences of proteins in these tests, tags left out. Where a name states a change or a piece, a line headed by the entry shows the natural chain unless it says otherwise. Chains listed by the source or under a name are the forms on record and can include a tag or linker. Residues count along the entry.
UniProt Q13547: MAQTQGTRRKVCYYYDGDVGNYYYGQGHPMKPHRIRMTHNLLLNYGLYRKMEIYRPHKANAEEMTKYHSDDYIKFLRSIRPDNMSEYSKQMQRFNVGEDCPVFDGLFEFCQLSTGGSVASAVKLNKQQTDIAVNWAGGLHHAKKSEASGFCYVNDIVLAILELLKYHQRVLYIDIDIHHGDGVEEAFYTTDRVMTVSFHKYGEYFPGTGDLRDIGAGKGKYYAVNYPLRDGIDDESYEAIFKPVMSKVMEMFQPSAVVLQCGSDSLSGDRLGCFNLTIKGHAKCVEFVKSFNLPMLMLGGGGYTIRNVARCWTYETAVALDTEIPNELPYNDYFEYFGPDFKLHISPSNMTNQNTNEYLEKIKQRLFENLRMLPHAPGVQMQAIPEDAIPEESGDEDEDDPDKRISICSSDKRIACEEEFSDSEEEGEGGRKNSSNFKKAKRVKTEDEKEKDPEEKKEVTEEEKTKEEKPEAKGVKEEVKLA
UniProt P25490: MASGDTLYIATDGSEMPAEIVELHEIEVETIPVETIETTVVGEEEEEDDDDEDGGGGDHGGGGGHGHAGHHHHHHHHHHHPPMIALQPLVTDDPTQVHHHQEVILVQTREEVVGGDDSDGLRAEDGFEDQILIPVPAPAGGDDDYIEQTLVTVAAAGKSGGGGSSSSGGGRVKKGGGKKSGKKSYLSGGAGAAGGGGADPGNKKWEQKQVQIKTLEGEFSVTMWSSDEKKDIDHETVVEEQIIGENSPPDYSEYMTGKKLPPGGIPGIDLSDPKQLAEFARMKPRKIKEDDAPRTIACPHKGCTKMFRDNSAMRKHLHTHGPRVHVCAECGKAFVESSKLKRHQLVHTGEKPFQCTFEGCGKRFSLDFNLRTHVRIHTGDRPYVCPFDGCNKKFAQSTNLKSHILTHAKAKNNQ
His-GST tagged YY1/146–270: residues 146-270 of P25490
YY1/Δ146–270 (P25490, form named): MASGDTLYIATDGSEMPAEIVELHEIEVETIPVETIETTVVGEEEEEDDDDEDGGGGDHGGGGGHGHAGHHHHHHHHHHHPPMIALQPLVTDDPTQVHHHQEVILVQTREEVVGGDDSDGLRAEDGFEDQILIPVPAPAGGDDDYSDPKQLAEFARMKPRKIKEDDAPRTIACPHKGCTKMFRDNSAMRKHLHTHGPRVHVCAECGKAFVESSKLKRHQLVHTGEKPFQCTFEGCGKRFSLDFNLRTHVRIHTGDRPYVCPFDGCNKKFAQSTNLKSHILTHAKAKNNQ

These are yes or no findings as the source states them, for the method shown. In cells and extracts the contact can be indirect. Some entries that bind do so weakly or less than the wild type. For some assays here: Tags and fused reporters may be left off the sequences shown.

The target of experiment [1] is T1, Myc-MOF (full length) (human) (UniProt Q9H7Z6).
T1 sequence: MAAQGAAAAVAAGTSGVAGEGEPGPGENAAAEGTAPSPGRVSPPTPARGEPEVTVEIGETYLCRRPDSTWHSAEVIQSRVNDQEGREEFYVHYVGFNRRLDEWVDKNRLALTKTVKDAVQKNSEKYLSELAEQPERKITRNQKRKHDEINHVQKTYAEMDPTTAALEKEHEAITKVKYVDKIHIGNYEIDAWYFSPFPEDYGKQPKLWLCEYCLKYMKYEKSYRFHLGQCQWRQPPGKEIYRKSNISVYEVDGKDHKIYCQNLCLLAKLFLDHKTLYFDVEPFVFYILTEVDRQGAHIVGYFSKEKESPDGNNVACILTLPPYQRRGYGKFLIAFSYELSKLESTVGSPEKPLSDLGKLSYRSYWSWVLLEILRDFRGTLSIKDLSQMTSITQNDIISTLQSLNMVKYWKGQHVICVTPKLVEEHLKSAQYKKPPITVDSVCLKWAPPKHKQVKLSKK
The experiment in a line: co-IP; competitive binding: HCT116 cells transfected with Flag-YY1wt and Myc-MOF with or without YY1/146–270; 48 h; MOF bound to YY1 analysed after a Flag IP.

The target of experiment [2] is HDAC1 (human) (UniProt Q13547). Briefly: co-IP; HCT116 cells co-transfected with both partners, 48 h; whole-cell lysate in RIPA lysate buffer (1% NP-40, 150 mM NaCl, 50 mM Tris-HCl, 10% glycerol, 1 mM DTT); anti-Flag (M2) or anti-Myc agarose overnight at 4 °C; Western blot. (Immunoblotting shows a protein as a band on a membrane.)
Experiment [3] has as its target T2, Flag-MOF (in HCT116) (human) (UniProt Q9H7Z6).
T2 sequence: T1 sequence
The experiment in a line: co-IP; Flag IP from HCT116 cells overexpressing a Flag-tagged protein; endogenous partner detected by Western blot; RIPA lysate buffer (1% NP-40, 150 mM NaCl, 50 mM Tris-HCl, 10% glycerol, 1 mM DTT), anti-Flag (M2) agarose overnight at 4 °C.

Experiment [4] concerns the target Flag-YY1 (wild-type Yin Yang 1) (human) (UniProt P25490). Briefly: co-IP; competition: HCT116 cells co-transfected with Flag-YY1/HDAC1, YY1/MOF or YY1/MOF/HDAC1; 48 h; proteins bound to YY1 after a Flag IP analysed by Western blot.
For experiment [5] the target is unchanged. Briefly: co-IP; HCT116 cells co-transfected with both partners, 48 h; whole-cell lysate in RIPA lysate buffer (1% NP-40, 150 mM NaCl, 50 mM Tris-HCl, 10% glycerol, 1 mM DTT); anti-Flag (M2) or anti-Myc agarose overnight at 4 °C; Western blot.
Experiment [6] has the same target. The experiment is described as above. This is another data set of the same source.
The target in experiment [7] is YY1/Δ146–270 (human) (UniProt P25490). Described as above.
The target of experiment [8] is YY1K183R mutant (human) (UniProt P25490). The experiment is described as above.
Experiment [9] has as its target Flag-YY1 (wild-type Yin Yang 1) (human) (UniProt P25490). The experiment in a line: co-IP; competitive binding: HCT116 cells transfected with Flag-YY1wt and Myc-MOF with or without YY1/146–270; 48 h; MOF bound to YY1 analysed after a Flag IP.
Experiment [10] has as its target His-GST tagged YY1/146–270 (human) (UniProt P25490). The experiment in a line: pull-down; GST-pulldown: purified His-GST tagged YY1 deletion mutants mixed with whole cell lysate of Flag-MOF overexpressing 293T cells; only the target purified.

For “YY1/146–270 (expressed in HCT116) (from UniProt P25490 146-270) (domain or fragment)”, in experiment [1], the binding result is on record as “binds”.

Turning to “Flag-YY1 (wild-type Yin Yang 1) (from UniProt P25490 1-414)”, the binding result in [2] is “binds”.

As for “endogenous YY1 (from UniProt P25490 1-414)”, the binding entry in experiment [3] was “binds”. As to “HDAC1 (from UniProt Q13547 1-482) (enzyme)”, the binding result in experiment [4] and in experiment [5] was “binds” throughout.

B1: Myc-tagged MOF C-terminal (158–459 aa) (domain or fragment, UniProt Q9H7Z6-1 158-458)
chain: EMDPTTAALEKEHEAITKVKYVDKIHIGNYEIDAWYFSPFPEDYGKQPKLWLCEYCLKYMKYEKSYRFHLGQCQWRQPPGKEIYRKSNISVYEVDGKDHKIYCQNLCLLAKLFLDHKTLYFDVEPFVFYILTEVDRQGAHIVGYFSKEKESPDGNNVACILTLPPYQRRGYGKFLIAFSYELSKLESTVGSPEKPLSDLGKLSYRSYWSWVLLEILRDFRGTLSIKDLSQMTSITQNDIISTLQSLNMVKYWKGQHVICVTPKLVEEHLKSAQYKKPPITVDSVCLKWAPPKHKQVKLSKK
As for B1, the binding entry in experiment [6] is “binds”.

B2: MSL2 (protein, UniProt Q9HCI7-1 1-577)
chain: MNPVNATALYISASRLVLNYDPGDPKAFTEINRLLPYFRQSLSCCVCGHLLQDPIAPTNSTCQHYVCKTCKGKKMMMKPSCSWCKDYEQFEENKQLSILVNCYKKLCEYITQTTLARDIIEAVDCSSDILALLNDGSLFCEETEKPSDSSFTLCLTHSPLPSTSEPTTDPQASLSPMSESTLSIAIGSSVINGLPTYNGLSIDRFGINIPSPEHSNTIDVCNTVDIKTEDLSDSLPPVCDTVATDLCSTGIDICSFSEDIKPGDSLLLSVEEVLRSLETVSNTEVCCPNLQPNLEATVSNGPFLQLSSQSLSHNVFMSTSPALHGLSCTAATPKIAKLNRKRSRSESDSEKVQPLPISTIIRGPTLGASAPVTVKRESKISLQPIATVPNGGTTPKISKTVLLSTKSMKKSHEHGSKKSHSKTKPGILKKDKAVKEKIPSHHFMPGSPTKTVYKKPQEKKGCKCGRATQNPSVLTCRGQRCPCYSNRKACLDCICRGCQNSYMANGEKKLEAFAVPEKALEQTRLTLGINVTSIAVRNASTSTSVINVTGSPVTTFLAASTHDDKSLDEAIDMRFDC
Regarding B2, the binding result in experiment [6] is “binds”.

B3: Myc-MOF (full length) (protein, UniProt Q9H7Z6-1 1-458)
chain: T1 sequence
Turning to B3, the binding entry in experiment [7], in experiment [8], in experiment [6], in [9] and in [4] was “binds” throughout.

B4: untagged MOF (protein, UniProt Q9H7Z6-1 1-458)
chain: T1 sequence
On to B4, for which the binding result in [6] is on record as “binds”.

B5: Flag-MOF (in 293T) (protein, UniProt Q9H7Z6-1 1-458)
chain: T1 sequence
With B5, the binding result in experiment [10] was “binds”.
